Test results as given in patent publication US20040106626A1, “6-Membered unsaturated heterocyclic compounds useful for selective inhibition of the coagulation cascade” (Pharmacia Corporation, priority 2001, published 2004).
At least one compound was matched to its structure with a doubt left.

Tested on: Normal human pooled plasma
Test: Prothrombin time (PT) clotting assay
Type: biochemical
Conditions: concentration at which prothrombin time is prolonged by 2x normal, reported as less than or greater than 50 uM
Protocol: The prothrombin time (PT) assay is a clotting assay that is used to determine deficiencies of clotting factor activity in the extrinsic pathway. The assay measures time to clotting after the addition of thromboplastin (human tissue factor). Normal human pooled plasma is incubated with 100 uM compound or saline in a coagulation machine. Thromboplastin is added and time to clotting is measured. Compounds with greater than 3×normal PT of 11.0 seconds are further analyzed by concentration response to determine at what concentration the prothrombin time is prolonged by 2×normal.

SMILES	PT (Prothrombin time) 2xPT
CC(C)NC(=O)c1cc(N)cc(-c2cnc(NC(C)C)c(=O)n2CC(=O)NCc2ccc(C(=N)N)cc2)c1 [Example 60]	<50.0 µM
CC(C)Nc1ncc(-c2cc(N)cc(-c3ccccc3)c2)n(CC(=O)NCc2ccc(C(=N)N)cc2)c1=O [Example 69, 2-[6-(5-amino-1,1′-biphenyl-3-yl)-3-(isopropylamino)-2-oxopyrazin-1 (2H)-yl]-N-{4-[amino(imino)methyl]benzyl}acetamide]	<50.0 µM
COCCNC(=O)c1cc(N)cc(-c2cnc(NC(C)C)c(=O)n2CC(=O)NCc2ccc(C(=N)N)cc2)c1 [Example 26, 3-amino-5-[1-[2-({4-[amino(imino)methyl]benzyl}amino)-2-oxoethyl]-5-(isopropylamino)-6-oxo-1,6-dihydropyrazin-2-yl]-N-(2-methoxyethyl)benzamide]	<50.0 µM
